Experimental data: the supplement of paper PMC6411743
± gives the standard deviation of the averaged measurements. This is a selection; strong and weak results do not stand in their true shares. Most values lie at the level of the controls, where differences are scatter.

By UniProt entry, the sequences of proteins in these tests, tags left out. Where a name states a change or a piece, a line headed by the entry shows the natural chain unless it says otherwise.
UniProt Q9P2F8: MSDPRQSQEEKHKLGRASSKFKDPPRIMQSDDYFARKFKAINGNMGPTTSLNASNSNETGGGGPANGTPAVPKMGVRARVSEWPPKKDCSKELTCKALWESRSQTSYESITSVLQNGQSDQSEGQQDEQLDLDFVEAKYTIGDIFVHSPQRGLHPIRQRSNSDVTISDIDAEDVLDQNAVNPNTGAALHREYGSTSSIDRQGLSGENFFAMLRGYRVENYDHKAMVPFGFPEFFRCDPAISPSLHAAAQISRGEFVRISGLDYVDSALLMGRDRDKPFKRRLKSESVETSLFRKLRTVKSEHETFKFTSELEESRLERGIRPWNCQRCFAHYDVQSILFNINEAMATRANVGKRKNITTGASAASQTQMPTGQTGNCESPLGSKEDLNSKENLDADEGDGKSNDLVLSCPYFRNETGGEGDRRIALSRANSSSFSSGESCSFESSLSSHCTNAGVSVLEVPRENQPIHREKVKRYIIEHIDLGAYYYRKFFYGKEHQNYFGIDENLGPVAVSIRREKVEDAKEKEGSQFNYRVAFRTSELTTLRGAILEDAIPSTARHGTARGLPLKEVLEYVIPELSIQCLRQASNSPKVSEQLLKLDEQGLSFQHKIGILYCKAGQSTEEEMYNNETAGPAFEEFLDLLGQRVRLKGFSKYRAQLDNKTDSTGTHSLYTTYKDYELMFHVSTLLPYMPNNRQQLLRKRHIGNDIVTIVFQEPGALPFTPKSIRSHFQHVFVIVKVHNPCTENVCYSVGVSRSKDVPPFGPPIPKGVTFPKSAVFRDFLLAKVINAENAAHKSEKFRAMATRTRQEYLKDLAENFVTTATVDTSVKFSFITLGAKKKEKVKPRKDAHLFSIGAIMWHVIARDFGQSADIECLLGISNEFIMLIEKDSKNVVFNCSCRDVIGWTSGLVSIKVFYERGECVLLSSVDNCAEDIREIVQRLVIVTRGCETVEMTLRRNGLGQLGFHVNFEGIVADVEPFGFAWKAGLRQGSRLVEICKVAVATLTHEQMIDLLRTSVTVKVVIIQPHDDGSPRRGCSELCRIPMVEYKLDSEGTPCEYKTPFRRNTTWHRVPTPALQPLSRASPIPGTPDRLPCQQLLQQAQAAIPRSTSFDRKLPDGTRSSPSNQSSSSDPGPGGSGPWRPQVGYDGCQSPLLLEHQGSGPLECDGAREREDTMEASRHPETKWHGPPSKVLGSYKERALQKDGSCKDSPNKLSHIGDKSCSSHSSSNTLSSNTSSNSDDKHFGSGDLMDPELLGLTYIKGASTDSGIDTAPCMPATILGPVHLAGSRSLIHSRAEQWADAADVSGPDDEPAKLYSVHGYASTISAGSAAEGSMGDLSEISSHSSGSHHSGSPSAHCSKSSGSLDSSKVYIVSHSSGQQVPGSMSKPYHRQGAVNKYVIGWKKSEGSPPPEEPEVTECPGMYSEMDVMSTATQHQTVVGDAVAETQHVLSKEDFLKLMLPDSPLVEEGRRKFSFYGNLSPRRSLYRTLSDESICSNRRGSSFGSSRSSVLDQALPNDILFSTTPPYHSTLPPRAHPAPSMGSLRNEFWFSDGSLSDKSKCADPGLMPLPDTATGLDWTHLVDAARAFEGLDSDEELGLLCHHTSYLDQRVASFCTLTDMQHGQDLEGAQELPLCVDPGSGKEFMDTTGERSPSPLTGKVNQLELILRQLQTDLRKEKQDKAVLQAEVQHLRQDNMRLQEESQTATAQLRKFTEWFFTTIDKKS
UniProt Q9NZJ9: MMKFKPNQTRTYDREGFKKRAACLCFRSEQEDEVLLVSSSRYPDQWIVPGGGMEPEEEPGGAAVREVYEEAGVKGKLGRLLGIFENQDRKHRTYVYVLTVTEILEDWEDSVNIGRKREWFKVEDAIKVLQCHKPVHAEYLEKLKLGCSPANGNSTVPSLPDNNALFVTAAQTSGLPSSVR
UniProt Q9NRP2: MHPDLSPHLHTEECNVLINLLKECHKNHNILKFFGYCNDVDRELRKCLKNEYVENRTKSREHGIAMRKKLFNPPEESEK
UniProt Q9NVH1: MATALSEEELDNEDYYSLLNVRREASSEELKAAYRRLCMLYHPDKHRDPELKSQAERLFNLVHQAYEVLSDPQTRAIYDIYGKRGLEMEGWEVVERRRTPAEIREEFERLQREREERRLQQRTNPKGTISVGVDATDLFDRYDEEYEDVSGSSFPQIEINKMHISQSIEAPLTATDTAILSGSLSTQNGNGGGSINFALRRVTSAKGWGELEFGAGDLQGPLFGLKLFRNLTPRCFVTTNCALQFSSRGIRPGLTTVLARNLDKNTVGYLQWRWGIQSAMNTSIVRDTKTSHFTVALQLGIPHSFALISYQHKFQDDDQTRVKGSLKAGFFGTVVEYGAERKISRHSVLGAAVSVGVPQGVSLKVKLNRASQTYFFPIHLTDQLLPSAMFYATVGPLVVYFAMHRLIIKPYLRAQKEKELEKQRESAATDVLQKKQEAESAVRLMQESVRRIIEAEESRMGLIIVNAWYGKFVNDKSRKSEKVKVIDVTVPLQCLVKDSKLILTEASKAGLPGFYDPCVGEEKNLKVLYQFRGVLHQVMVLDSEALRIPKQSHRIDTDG
UniProt Q9NVM6: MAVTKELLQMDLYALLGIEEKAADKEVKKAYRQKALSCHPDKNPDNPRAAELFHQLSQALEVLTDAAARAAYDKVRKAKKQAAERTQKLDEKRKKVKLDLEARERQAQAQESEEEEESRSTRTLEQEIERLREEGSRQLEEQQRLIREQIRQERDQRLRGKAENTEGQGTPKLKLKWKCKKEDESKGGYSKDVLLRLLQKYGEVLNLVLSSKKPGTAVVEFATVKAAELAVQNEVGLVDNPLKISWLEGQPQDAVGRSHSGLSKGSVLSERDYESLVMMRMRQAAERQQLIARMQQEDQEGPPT
UniProt Q9P2J5: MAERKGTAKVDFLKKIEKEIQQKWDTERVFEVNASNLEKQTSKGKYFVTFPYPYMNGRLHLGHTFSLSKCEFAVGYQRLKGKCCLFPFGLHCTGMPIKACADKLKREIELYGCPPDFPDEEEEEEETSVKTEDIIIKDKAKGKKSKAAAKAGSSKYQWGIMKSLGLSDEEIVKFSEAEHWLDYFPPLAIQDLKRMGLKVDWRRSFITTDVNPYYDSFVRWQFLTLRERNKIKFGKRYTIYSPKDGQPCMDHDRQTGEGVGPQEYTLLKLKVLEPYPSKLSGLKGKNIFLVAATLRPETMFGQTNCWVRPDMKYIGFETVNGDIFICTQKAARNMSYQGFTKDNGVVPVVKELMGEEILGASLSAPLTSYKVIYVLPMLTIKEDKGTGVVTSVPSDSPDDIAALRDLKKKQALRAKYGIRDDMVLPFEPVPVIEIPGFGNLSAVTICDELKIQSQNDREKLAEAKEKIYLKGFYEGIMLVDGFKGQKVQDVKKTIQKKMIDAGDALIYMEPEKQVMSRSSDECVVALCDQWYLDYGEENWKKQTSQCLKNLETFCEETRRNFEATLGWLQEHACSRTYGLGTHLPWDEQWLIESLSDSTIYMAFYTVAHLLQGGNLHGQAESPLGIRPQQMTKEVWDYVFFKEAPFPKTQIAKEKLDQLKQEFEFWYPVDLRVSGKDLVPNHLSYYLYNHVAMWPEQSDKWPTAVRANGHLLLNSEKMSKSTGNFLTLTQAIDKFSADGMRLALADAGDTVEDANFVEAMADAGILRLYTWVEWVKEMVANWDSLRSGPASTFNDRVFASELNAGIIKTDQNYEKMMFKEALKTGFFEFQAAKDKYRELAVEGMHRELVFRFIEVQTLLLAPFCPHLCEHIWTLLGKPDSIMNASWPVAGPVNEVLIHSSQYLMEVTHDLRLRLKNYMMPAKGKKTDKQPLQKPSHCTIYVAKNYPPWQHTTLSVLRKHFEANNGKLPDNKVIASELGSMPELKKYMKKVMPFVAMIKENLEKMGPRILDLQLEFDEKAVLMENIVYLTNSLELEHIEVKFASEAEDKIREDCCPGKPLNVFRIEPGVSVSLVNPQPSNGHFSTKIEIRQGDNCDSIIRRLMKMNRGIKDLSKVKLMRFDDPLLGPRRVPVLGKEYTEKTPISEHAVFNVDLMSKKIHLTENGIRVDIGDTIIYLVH
UniProt Q9P253: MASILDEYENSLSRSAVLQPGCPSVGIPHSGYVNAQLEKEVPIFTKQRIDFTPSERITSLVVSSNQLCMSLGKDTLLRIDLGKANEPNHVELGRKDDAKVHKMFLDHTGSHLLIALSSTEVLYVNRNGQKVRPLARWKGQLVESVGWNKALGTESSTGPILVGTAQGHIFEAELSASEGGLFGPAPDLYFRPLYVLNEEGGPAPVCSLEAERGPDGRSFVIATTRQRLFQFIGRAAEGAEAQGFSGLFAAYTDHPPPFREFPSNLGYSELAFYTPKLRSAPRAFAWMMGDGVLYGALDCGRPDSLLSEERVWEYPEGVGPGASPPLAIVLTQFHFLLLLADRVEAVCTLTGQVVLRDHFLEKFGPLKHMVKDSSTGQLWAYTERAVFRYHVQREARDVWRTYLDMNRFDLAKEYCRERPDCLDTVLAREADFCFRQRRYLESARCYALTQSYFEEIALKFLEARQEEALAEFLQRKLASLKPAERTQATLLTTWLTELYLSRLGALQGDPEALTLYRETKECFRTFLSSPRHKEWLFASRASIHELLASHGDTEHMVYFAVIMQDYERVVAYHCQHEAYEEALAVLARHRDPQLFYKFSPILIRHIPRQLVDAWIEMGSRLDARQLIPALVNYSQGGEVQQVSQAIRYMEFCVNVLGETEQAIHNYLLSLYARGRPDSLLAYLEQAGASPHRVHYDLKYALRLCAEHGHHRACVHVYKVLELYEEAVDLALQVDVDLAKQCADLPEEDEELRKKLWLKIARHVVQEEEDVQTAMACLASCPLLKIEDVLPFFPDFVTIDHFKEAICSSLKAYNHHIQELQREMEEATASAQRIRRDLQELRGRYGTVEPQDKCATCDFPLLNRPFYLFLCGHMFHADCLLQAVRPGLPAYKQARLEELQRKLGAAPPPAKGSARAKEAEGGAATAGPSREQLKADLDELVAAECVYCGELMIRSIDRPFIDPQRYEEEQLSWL
UniProt Q9NRR5, whole entry: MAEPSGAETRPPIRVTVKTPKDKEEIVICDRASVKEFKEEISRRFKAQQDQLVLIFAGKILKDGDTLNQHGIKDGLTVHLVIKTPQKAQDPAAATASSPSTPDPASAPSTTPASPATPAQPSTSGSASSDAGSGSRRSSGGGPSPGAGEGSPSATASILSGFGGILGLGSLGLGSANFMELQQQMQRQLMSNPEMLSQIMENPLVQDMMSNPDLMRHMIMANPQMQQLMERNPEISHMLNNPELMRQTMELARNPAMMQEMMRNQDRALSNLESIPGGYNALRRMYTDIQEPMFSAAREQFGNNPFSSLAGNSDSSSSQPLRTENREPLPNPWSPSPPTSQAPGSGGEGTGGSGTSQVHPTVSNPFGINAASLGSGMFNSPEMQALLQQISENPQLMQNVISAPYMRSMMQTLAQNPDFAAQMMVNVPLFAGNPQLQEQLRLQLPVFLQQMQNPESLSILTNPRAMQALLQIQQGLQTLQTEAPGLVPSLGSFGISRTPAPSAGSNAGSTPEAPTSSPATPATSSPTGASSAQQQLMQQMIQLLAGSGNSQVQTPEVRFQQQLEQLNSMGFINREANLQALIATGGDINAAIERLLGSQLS
UniProt Q9P0J7: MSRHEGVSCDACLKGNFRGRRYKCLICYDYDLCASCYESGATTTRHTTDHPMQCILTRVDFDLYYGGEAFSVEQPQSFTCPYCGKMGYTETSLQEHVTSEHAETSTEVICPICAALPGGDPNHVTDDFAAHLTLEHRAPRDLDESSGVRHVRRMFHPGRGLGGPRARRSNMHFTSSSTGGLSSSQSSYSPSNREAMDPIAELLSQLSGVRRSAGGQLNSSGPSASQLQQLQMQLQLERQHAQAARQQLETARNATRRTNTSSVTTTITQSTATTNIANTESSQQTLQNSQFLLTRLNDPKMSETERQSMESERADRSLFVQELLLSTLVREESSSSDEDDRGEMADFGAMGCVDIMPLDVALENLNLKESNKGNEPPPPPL
UniProt Q9NXA8: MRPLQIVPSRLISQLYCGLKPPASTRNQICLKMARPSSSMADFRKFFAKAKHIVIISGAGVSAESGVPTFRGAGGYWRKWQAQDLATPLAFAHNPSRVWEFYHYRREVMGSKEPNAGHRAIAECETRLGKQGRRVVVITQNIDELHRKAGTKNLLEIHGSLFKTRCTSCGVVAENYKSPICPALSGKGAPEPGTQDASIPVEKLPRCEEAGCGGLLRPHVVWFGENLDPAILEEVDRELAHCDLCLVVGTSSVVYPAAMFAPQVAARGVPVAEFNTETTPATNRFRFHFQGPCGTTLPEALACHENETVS
UniProt Q9NTM9: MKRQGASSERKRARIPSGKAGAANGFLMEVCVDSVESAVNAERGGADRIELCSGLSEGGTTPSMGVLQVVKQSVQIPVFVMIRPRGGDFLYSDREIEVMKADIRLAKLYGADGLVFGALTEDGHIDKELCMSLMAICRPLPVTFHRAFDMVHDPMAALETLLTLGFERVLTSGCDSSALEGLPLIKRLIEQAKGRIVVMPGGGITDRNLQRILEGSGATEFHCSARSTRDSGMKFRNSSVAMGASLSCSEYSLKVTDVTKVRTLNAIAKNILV

Each target was assayed with Nc1ncnc2c1ncn2[C@@H]1O[C@H](COP(=O)(O)OP(=O)(O)NP(=O)(O)O)[C@@H](O)[C@H]1O [adenylyl imidodiphosphate] (assay: NP40-soluble protein abundance relative to vehicle (solubility fold change) (ratio); higher = more soluble protein in presence of AMP-PNP). Conditions: concentration: 0.1mM.
Method in brief: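 Jurkat crude lysate (Dounce-homogenised) was treated with eight concentrations from 0.1 to 10 mM for 10 min at room temperature, then 3 min at 37 °C. It was solubilised with 0.8% NP40 and benzonase (60 min, 4 °C) and ultracentrifuged, and the supernatant was TMT-labelled for LC-MS/MS. Intensities were vsn-normalised, and the value is the fold change against the NP40-processed vehicle per replicate, from three independent experiments.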

Target	NP40-soluble protein abundance
UVRAG (UniProt Q9P2Y5)	1.01 ± 0.028
SIPA1L2 (UniProt Q9P2F8)	1.043 ± 0.003
UniProt Q9P1W8 and related entries	1.014 ± 0.0077
UniProt Q9NZJ9 and related entries	1.05 ± 0.034
UniProt Q9P2X0-2|Q9P2X0	1.02 ± 0.031
UniProt Q9NRP2 and related entries	0.984 ± 0.019
UniProt Q9NSC5 and related entries	1.001 ± 0.0079
SMC4 (UniProt Q9NTJ3)	0.991 ± 0.011
ARGLU1 (UniProt Q9NWB6)	1.03 ± 0.024
TOMM22 (UniProt Q9NS69)	1.02 ± 0.011
FASTKD2 (UniProt Q9NYY8)	1.01 ± 0.04
DHCR7 (UniProt Q9UBM7)	1.02 ± 0.021
HECA (UniProt Q9UBI9)	0.9675 ± 0.0064
UniProt Q9NTX5 and related entries	0.9691 ± 0.0036
UniProt Q9NVR5	0.995 ± 0.022
UniProt Q9NW75 and related entries	0.998 ± 0.022
UniProt Q9NVM9	1 ± 0.035
UniProt Q9NVH1 and related entries	1.014 ± 0.0026
DNAJC17 (UniProt Q9NVM6)	1.03 ± 0.02

Target	NP40-soluble protein abundance
LARS (UniProt Q9P2J5)	1.04 ± 0.041
UniProt Q9P287 and related entries	1.02 ± 0.026
UniProt Q9NQ29 and related entries	1.05 ± 0.02
METTL1 (UniProt Q9UBP6)	0.987 ± 0.023
VPS18 (UniProt Q9P253)	1.03 ± 0.056
UBQLN4 (UniProt Q9NRR5)	0.9882 ± 0.0061
TMEM9B (UniProt Q9NQ34)	1 ± 0.03
UniProt Q9NV88 and related entries	0.996 ± 0.043
UniProt Q9NZB2 and related entries	1.05 ± 0.036
UniProt Q9NQW6 and related entries	0.98 ± 0.031
KCMF1 (UniProt Q9P0J7)	0.978 ± 0.041
UniProt Q9NZQ3 and related entries	1.04 ± 0.032
UniProt Q9UBL0 and related entries	0.961 ± 0.024
CISD1 (UniProt Q9NZ45)	0.9898 ± 0.0051
RBM12 (UniProt Q9NTZ6)	0.97 ± 0.012
UniProt Q9NXA8 and related entries	0.974 ± 0.032
UniProt Q9NUL5 and related entries	1.06 ± 0.023
CUTC (UniProt Q9NTM9)	1.03 ± 0.013

Same assay, conditions: concentration: 0.5mM

Target	NP40-soluble protein abundance
UVRAG (UniProt Q9P2Y5)	0.982 ± 0.028
SIPA1L2 (UniProt Q9P2F8)	1.01 ± 0.025
UniProt Q9P1W8 and related entries	0.998 ± 0.024
UniProt Q9NZJ9 and related entries	1.05 ± 0.061
UniProt Q9P2X0-2|Q9P2X0	1 ± 0.015
UniProt Q9NRP2 and related entries	1 ± 0.063
UniProt Q9NSC5 and related entries	0.986 ± 0.04
SMC4 (UniProt Q9NTJ3)	1 ± 0.032
ARGLU1 (UniProt Q9NWB6)	1.1 ± 0.12
TOMM22 (UniProt Q9NS69)	0.999 ± 0.011
FASTKD2 (UniProt Q9NYY8)	0.983 ± 0.046
DHCR7 (UniProt Q9UBM7)	1 ± 0.035
HECA (UniProt Q9UBI9)	0.989 ± 0.032
UniProt Q9NTX5 and related entries	0.965 ± 0.023
UniProt Q9NVR5	0.973 ± 0.04
UniProt Q9NW75 and related entries	1.05 ± 0.043
UniProt Q9NVM9	0.987 ± 0.041
UniProt Q9NVH1 and related entries	1.01 ± 0.027
DNAJC17 (UniProt Q9NVM6)	1.04 ± 0.031

Target	NP40-soluble protein abundance
LARS (UniProt Q9P2J5)	1 ± 0.087
UniProt Q9P287 and related entries	1.004 ± 0.006
UniProt Q9NQ29 and related entries	1.03 ± 0.064
METTL1 (UniProt Q9UBP6)	0.9746 ± 0.0094
VPS18 (UniProt Q9P253)	0.998 ± 0.036
UBQLN4 (UniProt Q9NRR5)	1.01 ± 0.016
TMEM9B (UniProt Q9NQ34)	0.992 ± 0.046
UniProt Q9NV88 and related entries	1.01 ± 0.028
UniProt Q9NZB2 and related entries	1.01 ± 0.018
UniProt Q9NQW6 and related entries	1.01 ± 0.023
KCMF1 (UniProt Q9P0J7)	1 ± 0.06
UniProt Q9NZQ3 and related entries	1.02 ± 0.028
UniProt Q9UBL0 and related entries	0.988 ± 0.039
CISD1 (UniProt Q9NZ45)	1.04 ± 0.025
RBM12 (UniProt Q9NTZ6)	0.959 ± 0.02
UniProt Q9NXA8 and related entries	0.988 ± 0.012
UniProt Q9NUL5 and related entries	1.04 ± 0.029
CUTC (UniProt Q9NTM9)	1.01 ± 0.049
